Measurements reported in article PMC4574921.
These are yes or no findings as the source states them, for the method shown.

Protein sequences, listed by entry. Tags and fused reporters are not part of them. Residues count along the entry.
UniProt P02769, residues 25-607: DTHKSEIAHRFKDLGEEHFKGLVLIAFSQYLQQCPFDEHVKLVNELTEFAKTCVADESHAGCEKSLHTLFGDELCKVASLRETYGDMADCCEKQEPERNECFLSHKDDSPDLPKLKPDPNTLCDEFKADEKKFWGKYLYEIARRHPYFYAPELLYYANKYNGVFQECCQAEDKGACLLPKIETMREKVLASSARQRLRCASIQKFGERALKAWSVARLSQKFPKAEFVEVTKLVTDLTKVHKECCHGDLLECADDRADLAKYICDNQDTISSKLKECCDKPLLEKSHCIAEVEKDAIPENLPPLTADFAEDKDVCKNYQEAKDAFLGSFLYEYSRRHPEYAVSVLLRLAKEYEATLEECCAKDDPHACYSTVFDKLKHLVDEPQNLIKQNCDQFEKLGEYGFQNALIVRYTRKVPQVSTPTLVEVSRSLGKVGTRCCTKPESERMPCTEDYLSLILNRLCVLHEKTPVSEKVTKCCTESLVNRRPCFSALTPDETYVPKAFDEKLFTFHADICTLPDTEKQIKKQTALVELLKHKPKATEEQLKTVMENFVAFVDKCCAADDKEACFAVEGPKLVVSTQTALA

Target: ParB (S. pneumoniae D39)
Test: MST; 100 nM ParB labeled with NT-647, titrated with CpsC/D (4 nM to 92 μM) or BSA (5 nM to 180 μM); Monolith NT.115; 25°C; 50 mM Tris-HCl, 150 mM NaCl, 10 mM MgCl2, 0.05% Tween-20; both purified

“BSA (Bovine Serum Albumin) (from UniProt P02769 25-607)” was tested, and the binding was “no binding (tested: 5 nM to 180 μM BSA)”.
